Assay [1] deals with T1, full length form of human PSGL-1 (human, UniProt Q14242 42-412).
T1 construct: whole, on cells; Expressed whole in COS cells and precipitated from the cell lysate with the biotinylated anti-PSGL-1 antibody 2G3; also called P-selectin glycoprotein ligand; CD162
T1 sequence (looked up): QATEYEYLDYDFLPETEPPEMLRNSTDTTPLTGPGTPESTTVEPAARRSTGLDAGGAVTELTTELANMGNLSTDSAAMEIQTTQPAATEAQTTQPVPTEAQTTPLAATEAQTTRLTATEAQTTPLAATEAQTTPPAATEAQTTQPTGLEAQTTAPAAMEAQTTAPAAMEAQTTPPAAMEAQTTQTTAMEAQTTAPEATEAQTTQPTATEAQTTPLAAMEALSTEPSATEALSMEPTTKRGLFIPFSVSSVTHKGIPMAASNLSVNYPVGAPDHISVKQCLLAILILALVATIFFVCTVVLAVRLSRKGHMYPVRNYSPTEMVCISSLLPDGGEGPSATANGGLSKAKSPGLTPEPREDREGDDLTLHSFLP
Nature of the assay: co-immunoprecipitation from COS cell lysates with anti-PSGL-1 antibody 2G3, anti-T7 Western blot. The protocol: COS cells were transfected with T7-tagged forms of SLIC-1 as described in Example 3. Vector pMT-PL85A (Genetics Institute) was included in a subset of samples to transiently overexpress the full length form of human PSGL-1. Cell lysis was carried out as described above in 900 μL/dish of lysis buffer consisting of 20 mM Tris-HCl, pH 7.4, 137 mM NaCl, 0.05% Triton-X and protease inhibitors (Hildt, E and Oess, S J 1999 J. Exp. Med. 189(11): 1707-1714). A small volume of cleared cell lysate was used for Western Blotting to detect overexpressed protein in the whole cell lysate and for spectrophotometric measurement of the protein content. A volume of 300 μL of each lysate was used for co-immunoprecipitation studies with either 2.5 μg of biotinylated monoclonal mouse anti-PSGL-1 antibody (antibody 2G3, Genetics Institute) or a biotinylated control antibody (SIGMA). The samples were agitated at 4° C. for 5 hours, and immuncomplexes were precipitated with streptavidin agarose beads (Pierce) under the same conditions for 1 hour. […] The presence of T7-tagged SLIC-1 protein in the samples was detected by Western blot analysis using an anti-T7 Horse Radish Peroxidase LumiBlot Kit (Novagen) according to the manufacturer's instructions.

In assay [2] the target is T1, full length form of human PSGL-1. Nature of the assay: co-immunoprecipitation from COS cell lysates, Western blot. For orientation: Immunoblotting shows a protein as a band on a membrane.

The record followed here is patent US20020037840A1 (GENETICS INSTITUTE, published 2002).

These are yes or no findings as the source states them, for the method shown. In cells and extracts the contact can be indirect. Some entries that bind do so weakly or less than the wild type. Tags and fused reporters may be left off the sequences shown.

B1: T7-tagged polypeptide comprising amino acid residues 1-226 of SLIC-1 (protein)
chain: MASMTGGQQMGMASPEHPGSPGCMGPITQCTARTQQEAPATGPDLPHPGPDGHLDTHSGLSSNSSMTTRELQQYWQNQKCRWKHVKLLFEIASARIEERKVSKFVVYQIIVIQTGSFDNNKAVLERRYSDFAKLQKALLKTFREEIEDVEFPRKHLTGNFAEEMICERRRALQEYLGLLYAIRCVRRSREFLDFLTRPELREAFGCLRAGQYPRALELLLRVLPLQEKLTAHCPAAA
Take B1: the binding entry in assay [1] is reported as “binds”.

B2: full length SLIC-1 as a fusion protein with a T7 protein tag (protein)
chain: MASMTGGQQMGMASPEHPGSPGCMGPITQCTARTQQEAPATGPDLPHPGPDGHLDTHSGLSSNSSMTTRELQQYWQNQKCRWKHVKLLFEIASARIEERKVSKFVVYQIIVIQTGSFDNNKAVLERRYSDFAKLQKALLKTFREEIEDVEFPRKHLTGNFAEEMICERRRALQEYLGLLYAIRCVRRSREFLDFLTRPELREAFGCLRAGQYPRALELLLRVLPLQEKLTAHCPAAAVPALCAVLLCHRDLDRPAEAFAAGERALQRLQAREGHRYYAPLLDAMVRLAYALGKDFVTLQERLEESQLRRPTPRGITLKELTVREYLH
On to B2, for which the binding entry in assay [2] and in assay [1] was “binds” in each case.
